Experimental data published in the supplement of paper PMC12067093, “Discovery and optimisation of a covalent ligand for TRIM25 and its application to targeted protein ubiquitination” (Chemical Science, 2025).
Some of the results follow.

The chains behind the UniProt entries cited, without tags or fusion partners. Where a name states a change or a piece, a line headed by the entry shows the natural chain unless it says otherwise.
UniProt Q9NX14, whole entry, looked up: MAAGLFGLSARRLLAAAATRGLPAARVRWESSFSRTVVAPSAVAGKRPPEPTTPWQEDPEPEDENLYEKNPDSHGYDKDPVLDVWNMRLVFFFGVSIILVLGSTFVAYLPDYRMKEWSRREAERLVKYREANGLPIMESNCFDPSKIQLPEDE
UniProt Q96IV0: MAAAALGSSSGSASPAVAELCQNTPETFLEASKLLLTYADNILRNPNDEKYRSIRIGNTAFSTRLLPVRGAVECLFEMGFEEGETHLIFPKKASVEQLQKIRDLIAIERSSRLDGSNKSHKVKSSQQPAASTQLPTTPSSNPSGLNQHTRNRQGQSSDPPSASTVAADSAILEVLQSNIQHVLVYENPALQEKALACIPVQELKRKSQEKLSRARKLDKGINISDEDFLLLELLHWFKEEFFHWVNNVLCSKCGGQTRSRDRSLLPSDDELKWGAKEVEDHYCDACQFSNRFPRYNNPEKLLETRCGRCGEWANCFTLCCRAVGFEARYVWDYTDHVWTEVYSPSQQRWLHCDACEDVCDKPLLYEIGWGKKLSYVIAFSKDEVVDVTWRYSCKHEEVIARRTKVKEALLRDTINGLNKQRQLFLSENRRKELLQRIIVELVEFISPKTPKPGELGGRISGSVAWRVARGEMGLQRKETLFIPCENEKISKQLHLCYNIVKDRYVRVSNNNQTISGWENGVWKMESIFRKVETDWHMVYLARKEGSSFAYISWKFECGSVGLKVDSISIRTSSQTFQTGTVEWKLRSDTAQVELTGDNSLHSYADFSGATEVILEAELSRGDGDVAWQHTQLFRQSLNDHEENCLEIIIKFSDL
UniProt P19838: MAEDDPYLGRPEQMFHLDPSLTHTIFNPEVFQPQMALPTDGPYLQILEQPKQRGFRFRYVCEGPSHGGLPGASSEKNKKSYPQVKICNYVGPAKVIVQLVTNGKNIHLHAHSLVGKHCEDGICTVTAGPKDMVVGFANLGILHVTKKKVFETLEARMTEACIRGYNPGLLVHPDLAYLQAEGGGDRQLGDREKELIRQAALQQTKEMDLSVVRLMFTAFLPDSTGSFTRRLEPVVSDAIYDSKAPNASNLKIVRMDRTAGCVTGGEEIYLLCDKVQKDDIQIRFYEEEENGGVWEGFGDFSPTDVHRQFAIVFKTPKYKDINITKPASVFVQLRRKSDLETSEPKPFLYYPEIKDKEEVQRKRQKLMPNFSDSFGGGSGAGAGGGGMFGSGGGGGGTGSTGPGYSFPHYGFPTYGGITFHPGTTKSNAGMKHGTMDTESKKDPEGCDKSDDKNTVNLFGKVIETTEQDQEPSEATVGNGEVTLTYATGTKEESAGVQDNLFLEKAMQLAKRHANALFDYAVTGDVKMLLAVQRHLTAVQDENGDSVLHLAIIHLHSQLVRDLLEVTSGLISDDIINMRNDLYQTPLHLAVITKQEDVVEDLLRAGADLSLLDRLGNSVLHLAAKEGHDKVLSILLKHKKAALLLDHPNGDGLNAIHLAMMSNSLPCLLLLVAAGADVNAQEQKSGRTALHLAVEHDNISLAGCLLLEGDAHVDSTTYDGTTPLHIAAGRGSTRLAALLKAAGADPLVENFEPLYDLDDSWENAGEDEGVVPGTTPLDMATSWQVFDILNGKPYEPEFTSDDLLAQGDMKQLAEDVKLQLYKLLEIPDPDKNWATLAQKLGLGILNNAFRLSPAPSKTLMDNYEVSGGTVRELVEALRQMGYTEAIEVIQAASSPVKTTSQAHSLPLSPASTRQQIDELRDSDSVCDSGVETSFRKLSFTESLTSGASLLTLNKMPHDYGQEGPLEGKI
UniProt P08651, whole entry, looked up: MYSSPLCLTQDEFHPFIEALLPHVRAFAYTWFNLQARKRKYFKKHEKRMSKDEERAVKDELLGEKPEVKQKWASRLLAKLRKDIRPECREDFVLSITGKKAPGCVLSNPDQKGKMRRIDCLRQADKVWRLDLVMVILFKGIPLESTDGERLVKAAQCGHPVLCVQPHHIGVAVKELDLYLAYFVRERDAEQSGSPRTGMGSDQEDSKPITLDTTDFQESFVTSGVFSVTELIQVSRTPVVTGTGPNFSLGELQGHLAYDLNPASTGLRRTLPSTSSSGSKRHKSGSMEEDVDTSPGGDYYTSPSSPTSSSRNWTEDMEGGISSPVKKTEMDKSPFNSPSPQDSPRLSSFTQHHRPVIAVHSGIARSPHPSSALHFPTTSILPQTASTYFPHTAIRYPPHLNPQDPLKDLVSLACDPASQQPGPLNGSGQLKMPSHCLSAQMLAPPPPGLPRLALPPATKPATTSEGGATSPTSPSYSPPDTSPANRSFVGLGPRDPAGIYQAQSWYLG
UniProt Q12986: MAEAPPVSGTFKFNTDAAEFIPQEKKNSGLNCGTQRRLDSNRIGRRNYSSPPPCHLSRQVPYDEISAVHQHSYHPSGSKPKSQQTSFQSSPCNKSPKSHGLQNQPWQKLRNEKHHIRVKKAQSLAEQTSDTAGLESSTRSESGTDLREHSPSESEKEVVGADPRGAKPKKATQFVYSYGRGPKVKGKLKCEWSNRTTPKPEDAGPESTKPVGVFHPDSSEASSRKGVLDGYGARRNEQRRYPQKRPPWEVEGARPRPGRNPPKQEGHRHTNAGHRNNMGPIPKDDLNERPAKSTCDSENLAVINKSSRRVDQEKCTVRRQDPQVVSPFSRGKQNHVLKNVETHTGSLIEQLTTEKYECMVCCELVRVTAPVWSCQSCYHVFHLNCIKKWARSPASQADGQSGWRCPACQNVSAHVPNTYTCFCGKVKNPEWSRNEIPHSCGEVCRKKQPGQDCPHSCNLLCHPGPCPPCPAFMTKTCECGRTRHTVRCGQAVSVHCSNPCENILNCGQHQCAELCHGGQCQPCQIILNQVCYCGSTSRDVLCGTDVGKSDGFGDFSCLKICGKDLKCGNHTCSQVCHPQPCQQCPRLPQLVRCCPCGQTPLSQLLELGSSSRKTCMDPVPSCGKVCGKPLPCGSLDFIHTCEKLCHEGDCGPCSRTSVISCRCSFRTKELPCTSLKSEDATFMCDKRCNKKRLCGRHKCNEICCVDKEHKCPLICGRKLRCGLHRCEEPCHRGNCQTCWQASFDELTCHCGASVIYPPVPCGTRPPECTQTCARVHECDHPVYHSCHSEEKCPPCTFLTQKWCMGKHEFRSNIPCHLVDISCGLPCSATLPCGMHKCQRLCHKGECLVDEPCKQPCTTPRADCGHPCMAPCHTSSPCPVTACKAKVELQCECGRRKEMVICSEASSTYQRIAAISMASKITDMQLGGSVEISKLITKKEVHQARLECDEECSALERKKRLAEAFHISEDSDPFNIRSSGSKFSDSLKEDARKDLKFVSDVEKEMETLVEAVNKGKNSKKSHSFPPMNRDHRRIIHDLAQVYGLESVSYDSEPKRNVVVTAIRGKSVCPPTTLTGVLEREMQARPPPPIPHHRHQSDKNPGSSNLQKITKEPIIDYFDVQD
UniProt Q86Y39, whole entry, looked up: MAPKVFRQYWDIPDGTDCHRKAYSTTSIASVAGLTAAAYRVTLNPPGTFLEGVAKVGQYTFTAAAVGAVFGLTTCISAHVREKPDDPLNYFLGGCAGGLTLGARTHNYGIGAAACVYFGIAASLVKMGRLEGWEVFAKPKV
UniProt Q9UGV2: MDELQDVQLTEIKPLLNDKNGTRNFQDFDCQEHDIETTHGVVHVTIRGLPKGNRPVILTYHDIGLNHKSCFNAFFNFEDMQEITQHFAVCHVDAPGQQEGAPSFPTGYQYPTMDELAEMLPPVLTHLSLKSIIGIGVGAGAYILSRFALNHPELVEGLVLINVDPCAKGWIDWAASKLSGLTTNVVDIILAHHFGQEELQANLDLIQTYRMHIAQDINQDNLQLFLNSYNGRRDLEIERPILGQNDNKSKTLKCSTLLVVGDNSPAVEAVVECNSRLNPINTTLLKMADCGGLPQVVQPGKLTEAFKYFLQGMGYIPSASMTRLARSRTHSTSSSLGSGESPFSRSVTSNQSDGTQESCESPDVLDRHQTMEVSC
UniProt Q9UN36: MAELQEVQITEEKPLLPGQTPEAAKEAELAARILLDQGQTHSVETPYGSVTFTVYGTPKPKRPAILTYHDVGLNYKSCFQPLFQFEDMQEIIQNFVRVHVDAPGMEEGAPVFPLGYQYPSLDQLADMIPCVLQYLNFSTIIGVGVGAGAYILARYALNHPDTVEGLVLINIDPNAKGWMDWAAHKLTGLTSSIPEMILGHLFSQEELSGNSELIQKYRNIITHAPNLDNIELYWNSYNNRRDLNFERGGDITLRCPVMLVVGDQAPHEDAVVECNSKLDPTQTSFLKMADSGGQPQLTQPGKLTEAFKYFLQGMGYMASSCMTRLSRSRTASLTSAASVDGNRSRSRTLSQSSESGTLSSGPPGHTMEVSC
UniProt Q8NI08: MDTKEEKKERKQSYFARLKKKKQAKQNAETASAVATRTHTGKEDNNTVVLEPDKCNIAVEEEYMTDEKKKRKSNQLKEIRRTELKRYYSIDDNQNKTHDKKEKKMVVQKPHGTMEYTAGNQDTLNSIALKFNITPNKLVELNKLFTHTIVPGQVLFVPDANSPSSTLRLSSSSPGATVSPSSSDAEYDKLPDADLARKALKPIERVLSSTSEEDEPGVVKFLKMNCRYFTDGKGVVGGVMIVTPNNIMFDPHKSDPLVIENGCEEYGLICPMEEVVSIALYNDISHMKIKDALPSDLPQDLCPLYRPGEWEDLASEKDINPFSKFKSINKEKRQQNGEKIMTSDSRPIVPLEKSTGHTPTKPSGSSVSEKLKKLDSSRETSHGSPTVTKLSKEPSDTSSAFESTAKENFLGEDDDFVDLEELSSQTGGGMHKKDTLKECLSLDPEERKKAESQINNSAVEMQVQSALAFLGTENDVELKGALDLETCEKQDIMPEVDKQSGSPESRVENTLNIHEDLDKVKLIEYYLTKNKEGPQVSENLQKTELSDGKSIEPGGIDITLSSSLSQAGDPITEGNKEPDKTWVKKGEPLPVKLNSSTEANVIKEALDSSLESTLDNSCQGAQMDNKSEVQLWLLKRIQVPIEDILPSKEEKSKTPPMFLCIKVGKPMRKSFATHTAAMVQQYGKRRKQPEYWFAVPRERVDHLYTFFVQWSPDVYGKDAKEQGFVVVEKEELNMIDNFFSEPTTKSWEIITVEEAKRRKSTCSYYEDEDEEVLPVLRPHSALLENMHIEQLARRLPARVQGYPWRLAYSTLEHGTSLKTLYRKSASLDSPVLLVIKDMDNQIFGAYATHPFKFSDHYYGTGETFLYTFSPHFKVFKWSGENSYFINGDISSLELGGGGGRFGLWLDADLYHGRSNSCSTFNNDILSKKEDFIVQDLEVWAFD
UniProt Q16718, whole entry, looked up: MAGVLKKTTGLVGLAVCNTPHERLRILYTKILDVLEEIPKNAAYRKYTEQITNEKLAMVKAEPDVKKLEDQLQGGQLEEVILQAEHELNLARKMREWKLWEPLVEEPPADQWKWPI
UniProt Q9NQR4: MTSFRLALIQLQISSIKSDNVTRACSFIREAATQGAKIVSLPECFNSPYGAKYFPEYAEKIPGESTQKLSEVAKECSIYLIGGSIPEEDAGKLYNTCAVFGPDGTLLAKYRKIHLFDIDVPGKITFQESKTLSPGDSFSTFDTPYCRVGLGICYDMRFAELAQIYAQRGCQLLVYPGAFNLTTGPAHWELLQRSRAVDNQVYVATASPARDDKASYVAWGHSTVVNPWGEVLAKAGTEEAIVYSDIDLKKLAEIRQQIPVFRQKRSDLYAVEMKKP
UniProt Q8IXH7, whole entry, looked up: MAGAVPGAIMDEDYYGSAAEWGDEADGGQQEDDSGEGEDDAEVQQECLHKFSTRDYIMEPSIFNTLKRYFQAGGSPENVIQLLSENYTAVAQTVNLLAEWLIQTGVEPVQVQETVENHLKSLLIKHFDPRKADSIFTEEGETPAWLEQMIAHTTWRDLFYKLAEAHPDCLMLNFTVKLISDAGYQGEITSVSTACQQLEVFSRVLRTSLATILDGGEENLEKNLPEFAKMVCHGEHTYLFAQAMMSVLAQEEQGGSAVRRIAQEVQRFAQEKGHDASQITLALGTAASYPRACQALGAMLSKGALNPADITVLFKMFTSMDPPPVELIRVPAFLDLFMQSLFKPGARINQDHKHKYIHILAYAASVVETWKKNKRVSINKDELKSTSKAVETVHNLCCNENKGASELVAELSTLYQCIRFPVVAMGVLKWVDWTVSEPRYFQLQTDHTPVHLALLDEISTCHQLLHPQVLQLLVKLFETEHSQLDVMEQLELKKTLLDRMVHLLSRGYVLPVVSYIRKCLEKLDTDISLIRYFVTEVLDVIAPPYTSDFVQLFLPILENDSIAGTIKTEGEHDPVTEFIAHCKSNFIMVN
UniProt P18615, whole entry: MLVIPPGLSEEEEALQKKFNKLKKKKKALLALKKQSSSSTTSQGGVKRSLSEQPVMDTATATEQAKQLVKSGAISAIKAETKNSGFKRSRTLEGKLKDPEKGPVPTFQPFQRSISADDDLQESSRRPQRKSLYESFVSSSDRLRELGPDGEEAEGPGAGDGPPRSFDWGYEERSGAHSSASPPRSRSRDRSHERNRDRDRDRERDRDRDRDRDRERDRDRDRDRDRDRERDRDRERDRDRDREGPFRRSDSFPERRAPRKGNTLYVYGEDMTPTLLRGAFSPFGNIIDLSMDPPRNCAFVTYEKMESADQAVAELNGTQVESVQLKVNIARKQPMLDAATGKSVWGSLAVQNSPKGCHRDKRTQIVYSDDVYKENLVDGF

Compound: Cc1cc(ccc1-c1ccccc1)C(=O)N1CCCN(CC1)C(=O)CCl [compound 10]
Assay: probe-labelled cysteine peptide fold change vs DMSO (competition) (log2 fold change); higher = less target engagement (more negative = stronger competition)
Details: THP-1, incubation time: 4 h
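Also: competitive profiling in live THP-1 cells: cysteine peptides tagged with an iodoacetamide desthiobiotin (IA-DTB) probe, intensity after compound treatment relative to DMSO-treated cells.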

Which results are given for “NDUFV1_P49821_286_LFNISGHVNHPCTVEEEMSVPLK (UniProt P49821)”?
probe-labelled cysteine peptide fold change (10 µM): -0.0494; probe-labelled cysteine peptide fold change (50 µM): -0.174

For “NFKB2_Q00653_432_TPQCEPQAPEMLQR (UniProt Q00653)”, which “probe-labelled cysteine peptide fold change” value (10 µM) is on record?
The value was -0.141.

And the “probe-labelled cysteine peptide fold change” value (50 µM)?
The value was -0.498.

Which “probe-labelled cysteine peptide fold change” value (10 µM) does the source give for “NDUFB11_Q9NX14_141_EANGLPIMESNCFDPSK (UniProt Q9NX14)” here?
The value was -0.269.

And the “probe-labelled cysteine peptide fold change” value (50 µM)?
Its value is -0.0512.

Which results are given for “NGLY1_Q96IV0_484_ETLFIPCENEK (UniProt Q96IV0)”?
probe-labelled cysteine peptide fold change (10 µM): -0.0711; probe-labelled cysteine peptide fold change (50 µM): -0.0217

With “NFKB1_P19838_61_YVCEGPSHGGLPGASSEK (UniProt P19838)” as the target, how does the “probe-labelled cysteine peptide fold change” value (10 µM) read?
The value was 0.0894.

And the “probe-labelled cysteine peptide fold change” value (50 µM)?
Its value is -0.824.

“NDUFV1_P49821_425_QIEGHTICALGDGAAWPVQGLIR (UniProt P49821)” was tested. Which “probe-labelled cysteine peptide fold change” value (10 µM) did it give?
The value was 0.563.

What about the “probe-labelled cysteine peptide fold change” value (50 µM) of the same target?
The value was 0.135.

For “NCOR1_O75376_2322_REEGDPSPHSGGVCKPK (UniProt O75376)”, which “probe-labelled cysteine peptide fold change” value (10 µM) is on record?
Its value is -0.154.

What about the “probe-labelled cysteine peptide fold change” value (50 µM) of the same target?
Its value is -0.551.

How did the “probe-labelled cysteine peptide fold change” value (10 µM) turn out when “NID1_P14543_403_HQCSVHAECR (UniProt P14543)” was run?
The value was -0.182.

What about the “probe-labelled cysteine peptide fold change” value (50 µM) of the same target?
Its value is -0.302.

For “NDRG1_Q92597_289_MADCGGLPQISQPAK (UniProt Q92597)”, which “probe-labelled cysteine peptide fold change” value (10 µM) is on record?
The value was -0.106.

And the “probe-labelled cysteine peptide fold change” value (50 µM)?
The value was -0.0404.

Which “probe-labelled cysteine peptide fold change” value (10 µM) does the source give for “NFRKB_Q6P4R8_17_MDSLDHMLTDPLELGPCGDGHGTR (UniProt Q6P4R8)” here?
The value was -0.564.

What about the “probe-labelled cysteine peptide fold change” value (50 µM) of the same target?
The value was -0.686.

Which results are given for “NEU1_Q99519_230_DGVFCLLSDDHGASWR (UniProt Q99519)”?
probe-labelled cysteine peptide fold change (10 µM): 0.14; probe-labelled cysteine peptide fold change (50 µM): 0.0556

Which “probe-labelled cysteine peptide fold change” value (10 µM) does the source give for “NEURL4_Q96JN8_527_LLFHPNCGQK (UniProt Q96JN8)” here?
Its value is -0.332.

And the “probe-labelled cysteine peptide fold change” value (50 µM)?
The value was -0.0952.

“NFIC_P08651_157_AAQCGHPVLCVQPHHIGVAVK (UniProt P08651)” was tested. Which “probe-labelled cysteine peptide fold change” value (10 µM) did it give?
The value was -0.126.

What about the “probe-labelled cysteine peptide fold change” value (50 µM) of the same target?
The value was -0.151.

With “NIT1_Q86X76_80_LGACLAFLPEAFDFIARDPAETLHLSEPLGGK (UniProt Q86X76)” as the target, how does the “probe-labelled cysteine peptide fold change” value (10 µM) read?
Its value is 0.761.

What about the “probe-labelled cysteine peptide fold change” value (50 µM) of the same target?
The value was -0.152.

“NEK9_Q8TD19_288_AMEVDSSQYSLELIQMVHSCLDQDPEQRPTADELLDRPLLR (UniProt Q8TD19)” was tested. Which “probe-labelled cysteine peptide fold change” value (10 µM) did it give?
Its value is 0.0112.

What about the “probe-labelled cysteine peptide fold change” value (50 µM) of the same target?
The value was 0.231.

With “NIPSNAP1_Q9BPW8_106_LHLDEDYPCSLVGNWNTWYGEQDQAVHLWR (UniProt Q9BPW8)” as the target, how does the “probe-labelled cysteine peptide fold change” value (10 µM) read?
The value was -0.0425.

And the “probe-labelled cysteine peptide fold change” value (50 µM)?
The value was 0.0951.

“NFKB1_P19838_161_MTEACIR (UniProt P19838)” was tested. Which “probe-labelled cysteine peptide fold change” value (10 µM) did it give?
Its value is 0.158.

What about the “probe-labelled cysteine peptide fold change” value (50 µM) of the same target?
The value was 0.0895.

What does the source list for “NFAT5_O94916_347_VKPHGFYQACR (UniProt O94916)”?
probe-labelled cysteine peptide fold change (10 µM): -0.00988; probe-labelled cysteine peptide fold change (50 µM): 0.00407

For “NFX1_Q12986_947+951_LECDEECSALER (UniProt Q12986)”, which “probe-labelled cysteine peptide fold change” value (10 µM) is on record?
The value was -0.238.

What about the “probe-labelled cysteine peptide fold change” value (50 µM) of the same target?
Its value is -0.409.

For “NDUFA11_Q86Y39_18_QYWDIPDGTDCHRK (UniProt Q86Y39)”, which “probe-labelled cysteine peptide fold change” value (10 µM) is on record?
The value was -0.216.

What about the “probe-labelled cysteine peptide fold change” value (50 µM) of the same target?
Its value is -0.195.

“NDRG3_Q9UGV2_166_FALNHPELVEGLVLINVDPCAK (UniProt Q9UGV2)” was tested. Which “probe-labelled cysteine peptide fold change” value (10 µM) did it give?
Its value is -0.162.

What about the “probe-labelled cysteine peptide fold change” value (50 µM) of the same target?
The value was 0.0214.

For “NIPSNAP2_O75323_108_HYPCTLVGTWNTWYGEQDQAVHLWR (UniProt O75323)”, which “probe-labelled cysteine peptide fold change” value (10 µM) is on record?
The value was 0.0481.

What about the “probe-labelled cysteine peptide fold change” value (50 µM) of the same target?
Its value is -0.0135.

Which “probe-labelled cysteine peptide fold change” value (10 µM) does the source give for “NCKAP1L_P55160_598_NHGLHHCNSFLEELAK (UniProt P55160)” here?
The value was -0.0406.

And the “probe-labelled cysteine peptide fold change” value (50 µM)?
The value was -0.242.

What does the source list for “NDRG2_Q9UN36_274_CPVMLVVGDQAPHEDAVVECNSK (UniProt Q9UN36)”?
probe-labelled cysteine peptide fold change (10 µM): -0.179; probe-labelled cysteine peptide fold change (50 µM): -0.0152

“NCOA7_Q8NI08_55_CNIAVEEEYMTDEK (UniProt Q8NI08)” was tested. Which “probe-labelled cysteine peptide fold change” value (10 µM) did it give?
The value was -0.00528.

And the “probe-labelled cysteine peptide fold change” value (50 µM)?
Its value is -0.387.

“NDUFA5_Q16718_17_KTTGLVGLAVCNTPHER (UniProt Q16718)” was tested. Which “probe-labelled cysteine peptide fold change” value (10 µM) did it give?
The value was -0.246.

And the “probe-labelled cysteine peptide fold change” value (50 µM)?
The value was -0.424.

For “NFATC1_O95644_587_TLSLQVASNPIECSQR (UniProt O95644)”, which “probe-labelled cysteine peptide fold change” value (10 µM) is on record?
The value was 0.242.

And the “probe-labelled cysteine peptide fold change” value (50 µM)?
The value was -0.122.

For “NIT2_Q9NQR4_146_TLSPGDSFSTFDTPYCR (UniProt Q9NQR4)”, which “probe-labelled cysteine peptide fold change” value (10 µM) is on record?
The value was 0.0904.

And the “probe-labelled cysteine peptide fold change” value (50 µM)?
The value was 0.573.

How did the “probe-labelled cysteine peptide fold change” value (10 µM) turn out when “NFKB1_P19838_87_ICNYVGPAK (UniProt P19838)” was run?
Its value is 0.163.

What about the “probe-labelled cysteine peptide fold change” value (50 µM) of the same target?
The value was 0.0367.

“NELFCD_Q8IXH7_582_TEGEHDPVTEFIAHCK (UniProt Q8IXH7)” was tested. Which “probe-labelled cysteine peptide fold change” value (10 µM) did it give?
The value was 0.0343.

And the “probe-labelled cysteine peptide fold change” value (50 µM)?
Its value is -0.208.

How did the “probe-labelled cysteine peptide fold change” value (10 µM) turn out when “NELFE_P18615_297_NCAFVTYEK (UniProt P18615)” was run?
The value was 0.0725.

And the “probe-labelled cysteine peptide fold change” value (50 µM)?
The value was -0.0683.

How did the “probe-labelled cysteine peptide fold change” value (10 µM) turn out when “NFIC_P08651_157+163_AAQCGHPVLCVQPHHIGVAVK (UniProt P08651)” was run?
The value was -0.172.

What about the “probe-labelled cysteine peptide fold change” value (50 µM) of the same target?
The value was -0.161.

Which “probe-labelled cysteine peptide fold change” value (10 µM) does the source give for “NDUFV1_P49821_382_HESCGQCTPCR (UniProt P49821)” here?
Its value is 0.0373.

And the “probe-labelled cysteine peptide fold change” value (50 µM)?
The value was 0.0241.

Which results are given for “NCOR2_Q9Y618_1289_GHVLSYEGGMSVTQCSK (UniProt Q9Y618)”?
probe-labelled cysteine peptide fold change (10 µM): -0.155; probe-labelled cysteine peptide fold change (50 µM): -0.339

For “NDUFV1_P49821_238+255_LKPPFPADVGVFGCPTTVANVETVAVSPTICR (UniProt P49821)”, which “probe-labelled cysteine peptide fold change” value (10 µM) is on record?
The value was -0.0101.

And the “probe-labelled cysteine peptide fold change” value (50 µM)?
Its value is 0.135.
